In US20180036256A1:
Results are given in words; binding and its absence hold for the method and conditions named. Some entries that bind do so weakly or less than the wild type.

Sequences of proteins named here, by UniProt entry; tags and fusion partners are left off. A change or cut given only in a name is not applied to a line headed by its entry. A line that says so, or that is headed by a name, gives the form on record, which may keep a tag or linker.
CHD1 D425A (O14646, form named): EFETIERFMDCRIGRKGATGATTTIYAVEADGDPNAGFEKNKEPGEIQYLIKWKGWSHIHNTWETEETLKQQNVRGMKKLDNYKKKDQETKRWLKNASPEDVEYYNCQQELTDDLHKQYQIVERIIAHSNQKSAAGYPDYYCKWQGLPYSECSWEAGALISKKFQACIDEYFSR

Molecular target: CHD1 D425A (UniProt O14646)
Assay: isothermal titration calorimetry implied (data not shown)

- binding: binds
Substance: H3K4me3 peptide (from UniProt P68431 2-22)
